Data taken from the supplement of paper PMC10060354, “Discovery of a small molecule ligand of FRS2 that inhibits invasion and tumor growth” (Cellular Oncology, 2022).
Repeats are few or missing, and single values can be far off.

By UniProt entry, the sequences of proteins in these tests, tags left out. Where a name states a change or a piece, a line headed by the entry shows the natural chain unless it says otherwise.
UniProt Q6P1A2: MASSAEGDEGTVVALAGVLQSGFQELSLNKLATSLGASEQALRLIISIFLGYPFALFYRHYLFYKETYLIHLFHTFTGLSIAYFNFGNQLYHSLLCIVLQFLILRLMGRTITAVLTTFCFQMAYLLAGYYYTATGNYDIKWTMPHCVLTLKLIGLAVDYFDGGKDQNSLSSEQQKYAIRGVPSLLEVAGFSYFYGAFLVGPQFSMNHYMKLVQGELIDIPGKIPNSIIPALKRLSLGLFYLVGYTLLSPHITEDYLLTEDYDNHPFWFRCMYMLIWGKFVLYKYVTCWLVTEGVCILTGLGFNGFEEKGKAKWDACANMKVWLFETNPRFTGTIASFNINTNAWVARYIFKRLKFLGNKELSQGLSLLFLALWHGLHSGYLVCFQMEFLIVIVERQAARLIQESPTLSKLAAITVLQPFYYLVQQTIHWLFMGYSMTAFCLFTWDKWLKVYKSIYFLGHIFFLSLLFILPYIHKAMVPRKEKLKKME
UniProt Q86XA9: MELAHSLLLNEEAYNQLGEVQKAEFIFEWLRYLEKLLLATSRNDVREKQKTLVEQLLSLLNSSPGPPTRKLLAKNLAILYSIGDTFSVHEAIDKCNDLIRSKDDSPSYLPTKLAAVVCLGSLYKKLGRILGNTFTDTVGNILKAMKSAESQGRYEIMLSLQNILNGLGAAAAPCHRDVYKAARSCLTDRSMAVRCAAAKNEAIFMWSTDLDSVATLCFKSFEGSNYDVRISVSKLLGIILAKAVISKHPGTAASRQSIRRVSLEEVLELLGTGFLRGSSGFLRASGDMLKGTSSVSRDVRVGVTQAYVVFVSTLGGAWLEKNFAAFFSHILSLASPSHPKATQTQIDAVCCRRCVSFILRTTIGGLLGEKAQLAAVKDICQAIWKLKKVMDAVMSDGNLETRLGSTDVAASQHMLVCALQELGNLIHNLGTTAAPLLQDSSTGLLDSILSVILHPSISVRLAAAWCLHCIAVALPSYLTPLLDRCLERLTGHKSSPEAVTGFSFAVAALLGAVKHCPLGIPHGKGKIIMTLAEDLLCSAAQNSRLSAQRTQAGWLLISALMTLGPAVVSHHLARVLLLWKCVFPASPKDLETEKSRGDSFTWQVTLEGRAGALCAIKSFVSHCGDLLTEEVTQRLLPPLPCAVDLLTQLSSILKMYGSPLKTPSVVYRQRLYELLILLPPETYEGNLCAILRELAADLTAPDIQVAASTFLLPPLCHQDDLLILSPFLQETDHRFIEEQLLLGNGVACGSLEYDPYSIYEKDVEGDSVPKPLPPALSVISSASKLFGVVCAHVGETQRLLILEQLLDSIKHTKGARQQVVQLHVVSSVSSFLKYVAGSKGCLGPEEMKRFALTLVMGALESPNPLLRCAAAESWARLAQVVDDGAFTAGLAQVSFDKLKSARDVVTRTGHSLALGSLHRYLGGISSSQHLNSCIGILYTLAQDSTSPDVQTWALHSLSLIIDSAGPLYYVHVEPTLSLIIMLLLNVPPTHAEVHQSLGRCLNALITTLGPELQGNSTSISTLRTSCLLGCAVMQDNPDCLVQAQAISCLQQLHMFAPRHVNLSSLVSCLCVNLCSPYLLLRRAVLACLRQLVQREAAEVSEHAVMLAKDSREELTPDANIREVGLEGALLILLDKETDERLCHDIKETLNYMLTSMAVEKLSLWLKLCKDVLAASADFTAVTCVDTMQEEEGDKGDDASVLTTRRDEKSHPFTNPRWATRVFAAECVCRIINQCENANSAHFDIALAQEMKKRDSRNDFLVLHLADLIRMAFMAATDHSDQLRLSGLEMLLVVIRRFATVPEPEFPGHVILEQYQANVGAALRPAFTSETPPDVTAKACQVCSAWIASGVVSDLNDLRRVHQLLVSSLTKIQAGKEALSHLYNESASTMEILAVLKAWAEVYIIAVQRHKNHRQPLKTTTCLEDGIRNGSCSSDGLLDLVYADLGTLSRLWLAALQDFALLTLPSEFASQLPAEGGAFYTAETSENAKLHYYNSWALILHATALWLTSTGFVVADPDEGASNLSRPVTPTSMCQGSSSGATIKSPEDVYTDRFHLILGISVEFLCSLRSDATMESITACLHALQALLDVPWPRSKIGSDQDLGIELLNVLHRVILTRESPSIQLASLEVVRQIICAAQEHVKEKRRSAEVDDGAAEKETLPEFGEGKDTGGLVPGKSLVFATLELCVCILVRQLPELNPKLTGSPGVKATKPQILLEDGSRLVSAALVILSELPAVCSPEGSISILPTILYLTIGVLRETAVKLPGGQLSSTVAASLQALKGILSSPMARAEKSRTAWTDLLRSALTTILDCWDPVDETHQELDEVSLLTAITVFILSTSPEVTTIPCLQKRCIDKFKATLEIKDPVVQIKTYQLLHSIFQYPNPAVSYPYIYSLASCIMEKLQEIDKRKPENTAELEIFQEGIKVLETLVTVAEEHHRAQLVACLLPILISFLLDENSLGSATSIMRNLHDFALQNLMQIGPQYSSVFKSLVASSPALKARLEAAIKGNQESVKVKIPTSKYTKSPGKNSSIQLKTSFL
UniProt Q8TCD1: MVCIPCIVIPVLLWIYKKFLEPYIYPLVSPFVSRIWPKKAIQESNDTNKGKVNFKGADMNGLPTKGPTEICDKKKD
UniProt Q9H1B4: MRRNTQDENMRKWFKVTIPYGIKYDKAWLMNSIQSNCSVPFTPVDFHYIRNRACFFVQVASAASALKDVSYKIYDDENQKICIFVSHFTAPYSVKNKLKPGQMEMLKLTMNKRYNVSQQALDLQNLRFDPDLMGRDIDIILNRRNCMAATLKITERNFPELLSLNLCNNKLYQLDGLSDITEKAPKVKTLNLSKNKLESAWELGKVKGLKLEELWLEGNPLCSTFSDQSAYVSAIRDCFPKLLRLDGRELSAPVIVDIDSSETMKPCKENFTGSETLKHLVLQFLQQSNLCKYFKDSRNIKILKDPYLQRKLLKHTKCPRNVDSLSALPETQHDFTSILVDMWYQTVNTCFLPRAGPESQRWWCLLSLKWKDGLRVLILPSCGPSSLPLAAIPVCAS
UniProt O95295: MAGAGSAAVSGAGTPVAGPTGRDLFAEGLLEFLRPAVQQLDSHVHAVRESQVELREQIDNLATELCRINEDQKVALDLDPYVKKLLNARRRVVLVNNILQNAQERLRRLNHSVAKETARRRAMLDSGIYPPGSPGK
UniProt P06748, whole entry: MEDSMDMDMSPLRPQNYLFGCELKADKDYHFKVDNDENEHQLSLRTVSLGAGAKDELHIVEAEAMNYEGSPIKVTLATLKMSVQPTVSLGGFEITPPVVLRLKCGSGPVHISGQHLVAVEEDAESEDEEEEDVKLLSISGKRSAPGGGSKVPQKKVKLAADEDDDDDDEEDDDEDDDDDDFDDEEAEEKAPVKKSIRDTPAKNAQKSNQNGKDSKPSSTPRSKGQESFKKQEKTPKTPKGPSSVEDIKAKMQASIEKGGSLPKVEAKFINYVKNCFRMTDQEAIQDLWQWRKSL
UniProt P63027, whole entry: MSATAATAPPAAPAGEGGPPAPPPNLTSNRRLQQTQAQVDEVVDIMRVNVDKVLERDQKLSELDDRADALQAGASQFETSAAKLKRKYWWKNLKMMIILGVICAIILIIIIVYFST
UniProt P00403, whole entry: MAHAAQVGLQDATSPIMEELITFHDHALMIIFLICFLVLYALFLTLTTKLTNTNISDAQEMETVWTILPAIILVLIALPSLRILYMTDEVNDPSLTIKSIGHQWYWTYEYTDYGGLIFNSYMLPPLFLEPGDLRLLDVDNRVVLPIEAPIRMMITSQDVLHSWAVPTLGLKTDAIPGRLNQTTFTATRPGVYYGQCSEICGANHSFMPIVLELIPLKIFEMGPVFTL
UniProt P17844: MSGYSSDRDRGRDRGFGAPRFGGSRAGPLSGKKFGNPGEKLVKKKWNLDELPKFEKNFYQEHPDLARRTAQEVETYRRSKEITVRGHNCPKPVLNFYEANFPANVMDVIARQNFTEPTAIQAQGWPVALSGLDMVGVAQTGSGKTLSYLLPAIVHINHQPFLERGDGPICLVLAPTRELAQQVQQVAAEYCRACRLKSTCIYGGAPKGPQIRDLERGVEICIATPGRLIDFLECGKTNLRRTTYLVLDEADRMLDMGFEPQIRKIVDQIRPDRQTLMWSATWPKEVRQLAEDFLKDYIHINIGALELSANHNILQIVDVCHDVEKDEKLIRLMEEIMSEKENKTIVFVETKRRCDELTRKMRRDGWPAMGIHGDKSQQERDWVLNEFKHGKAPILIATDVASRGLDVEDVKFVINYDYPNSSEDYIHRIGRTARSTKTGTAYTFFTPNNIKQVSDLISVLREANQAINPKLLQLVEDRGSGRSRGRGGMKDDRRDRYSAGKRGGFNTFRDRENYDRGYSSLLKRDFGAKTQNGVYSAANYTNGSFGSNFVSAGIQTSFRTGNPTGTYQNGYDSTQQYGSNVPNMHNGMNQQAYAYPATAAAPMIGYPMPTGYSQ
UniProt Q96SW2: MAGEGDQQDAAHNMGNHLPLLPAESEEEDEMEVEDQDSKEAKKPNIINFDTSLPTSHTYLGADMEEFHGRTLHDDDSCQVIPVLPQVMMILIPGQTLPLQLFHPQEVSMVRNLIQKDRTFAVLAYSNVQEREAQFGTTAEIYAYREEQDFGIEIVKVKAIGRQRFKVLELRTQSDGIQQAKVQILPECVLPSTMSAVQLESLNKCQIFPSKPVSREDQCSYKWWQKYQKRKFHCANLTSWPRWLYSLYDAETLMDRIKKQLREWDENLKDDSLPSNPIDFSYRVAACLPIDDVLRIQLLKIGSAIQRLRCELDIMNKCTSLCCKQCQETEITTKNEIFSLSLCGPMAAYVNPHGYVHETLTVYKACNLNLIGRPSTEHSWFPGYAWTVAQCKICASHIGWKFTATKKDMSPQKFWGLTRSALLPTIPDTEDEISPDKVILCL
UniProt Q9BZ95: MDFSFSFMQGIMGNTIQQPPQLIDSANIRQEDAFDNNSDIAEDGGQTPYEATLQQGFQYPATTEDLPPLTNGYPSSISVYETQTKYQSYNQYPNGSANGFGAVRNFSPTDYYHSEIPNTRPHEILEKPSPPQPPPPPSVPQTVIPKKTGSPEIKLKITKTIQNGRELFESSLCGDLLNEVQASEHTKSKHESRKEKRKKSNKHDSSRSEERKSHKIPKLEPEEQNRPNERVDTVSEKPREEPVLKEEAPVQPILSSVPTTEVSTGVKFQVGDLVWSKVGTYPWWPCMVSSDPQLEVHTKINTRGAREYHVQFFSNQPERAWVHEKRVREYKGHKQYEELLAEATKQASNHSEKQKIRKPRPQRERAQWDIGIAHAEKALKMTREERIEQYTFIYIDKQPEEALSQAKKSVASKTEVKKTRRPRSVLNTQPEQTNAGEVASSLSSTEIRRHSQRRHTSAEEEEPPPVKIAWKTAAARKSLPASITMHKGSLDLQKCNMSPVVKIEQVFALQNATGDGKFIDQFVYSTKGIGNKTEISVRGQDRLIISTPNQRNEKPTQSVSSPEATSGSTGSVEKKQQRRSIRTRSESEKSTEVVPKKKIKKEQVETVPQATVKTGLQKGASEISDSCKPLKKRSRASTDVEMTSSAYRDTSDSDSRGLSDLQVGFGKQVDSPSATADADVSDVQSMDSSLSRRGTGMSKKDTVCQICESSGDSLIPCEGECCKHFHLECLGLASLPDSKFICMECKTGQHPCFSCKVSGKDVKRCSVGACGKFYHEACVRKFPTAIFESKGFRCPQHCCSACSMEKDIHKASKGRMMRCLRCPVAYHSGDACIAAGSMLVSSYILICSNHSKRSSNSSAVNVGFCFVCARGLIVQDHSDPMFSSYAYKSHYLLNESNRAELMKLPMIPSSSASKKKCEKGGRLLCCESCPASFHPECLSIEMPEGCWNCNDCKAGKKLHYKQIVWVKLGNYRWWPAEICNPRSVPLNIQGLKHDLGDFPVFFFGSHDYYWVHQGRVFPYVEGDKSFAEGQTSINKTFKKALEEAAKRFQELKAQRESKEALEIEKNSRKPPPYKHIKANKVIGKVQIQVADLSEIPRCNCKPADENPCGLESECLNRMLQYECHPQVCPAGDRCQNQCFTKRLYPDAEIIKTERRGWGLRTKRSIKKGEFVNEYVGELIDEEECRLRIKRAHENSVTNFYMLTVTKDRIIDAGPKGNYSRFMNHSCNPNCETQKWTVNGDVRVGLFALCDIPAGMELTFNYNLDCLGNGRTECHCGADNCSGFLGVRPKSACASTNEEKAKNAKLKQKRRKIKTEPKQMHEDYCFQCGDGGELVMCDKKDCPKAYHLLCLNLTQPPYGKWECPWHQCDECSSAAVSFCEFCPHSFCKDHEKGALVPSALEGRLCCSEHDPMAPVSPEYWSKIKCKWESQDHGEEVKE
UniProt O75352: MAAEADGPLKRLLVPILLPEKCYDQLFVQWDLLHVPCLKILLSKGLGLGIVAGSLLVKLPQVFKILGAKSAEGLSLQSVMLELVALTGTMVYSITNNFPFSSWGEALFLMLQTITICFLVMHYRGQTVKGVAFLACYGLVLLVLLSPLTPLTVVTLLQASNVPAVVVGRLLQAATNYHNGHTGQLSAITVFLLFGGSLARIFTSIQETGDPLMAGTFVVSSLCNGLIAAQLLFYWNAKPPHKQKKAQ

Compound: [O-][N+](C(C1=C(C(O)=C2)NC(C(C=C3)=CC=C3Cl)C4C1C=CC4)=C2Cl)=O
Assay: melting temperature shift (compound 7 minus DMSO); higher = compound stabilises the protein
Details: 10 µM
Experimental: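 Thermal proteome profiling (TMT mass spectrometry) in intact DAOY medulloblastoma cells or DAOY lysates treated with 10 µM compound 7 or DMSO, heated at 10 temperatures from 40.5 to 73.8 °C for 3 min. Melting curves were fitted with the Bioconductor TPP package, and the melting point difference between compound and vehicle is reported per protein (single curve per condition).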

[1] = system: DAOY cell lysate, treatment time: 20 min, 4 °C
[2] = system: intact DAOY cells, treatment time: 90 min, 37 °C

| Target | melting temperature shift [1] | melting temperature shift [2] |
| --- | --- | --- |
| UniProt Q99836 | -0.758 °C | 0.616 °C |
| UniProt Q96L46 |  | 0.765 °C |
| C16ORF62 (UniProt Q7Z3J2) | -0.663 °C | -1.15 °C |
| LPCAT3 (UniProt Q6P1A2) |  | -2.62 °C |
| UniProt Q9BSU3 | 0.332 °C | 0.479 °C |
| LSM4 (UniProt Q9Y4Z0) | -0.183 °C | -0.775 °C |
| NDUFAF4 (UniProt Q9P032) | 1.33 °C | 0.144 °C |
| UniProt Q2VIR3 |  | -0.415 °C |
| UniProt Q96N64 | -1.12 °C |  |
| HEATR5A (UniProt Q86XA9) | 0.711 °C | -0.192 °C |
| UniProt Q13901 | 0.266 °C | 1.2 °C |
| TMEM87B (UniProt Q96K49) |  | 4.08 °C |
| UniProt Q8TCD1 | -3.22 °C |  |
| UniProt Q9H1B4 | -0.954 °C |  |
| FBL (UniProt P22087) | 0.72 °C | 0.198 °C |
| HACD2 (UniProt Q6Y1H2) | -0.0468 °C | -2.06 °C |
| BAZ1A (UniProt Q9NRL2) | 0.661 °C | 0.66 °C |
| UniProt Q8N1Q1 |  | -1.44 °C |
| SAFB2 (UniProt Q14151) | 0.99 °C | 0.487 °C |
| SMARCA5 (UniProt O60264) | 0.117 °C | -0.211 °C |
| UniProt P50406 |  | -0.489 °C |
| MACROD1 (UniProt Q9BQ69) | 3.19 °C |  |

| Target | melting temperature shift [1] | melting temperature shift [2] |
| --- | --- | --- |
| EPHB4 (UniProt P54760) | 0.485 °C | -0.813 °C |
| SNAPIN (UniProt O95295) | -2.11 °C | 0.581 °C |
| SDE2 (UniProt Q6IQ49) | -1.69 °C | -2.72 °C |
| UniProt A8MTJ3 |  | 0.268 °C |
| TMUB2 (UniProt Q71RG4) | 2.03 °C |  |
| NUDT2 (UniProt P50583) | -0.627 °C | -0.0498 °C |
| ARPP19 (UniProt P56211) | -0.913 °C |  |
| LGMN (UniProt Q99538) | 0.544 °C | 0.621 °C |
| NPM1 (UniProt P06748) | -0.196 °C | 1.09 °C |
| NME6 (UniProt O75414) |  | -0.661 °C |
| DCBLD2 (UniProt Q96PD2) | -2.79 °C |  |
| ANXA7 (UniProt P20073) | -0.547 °C | 0.293 °C |
| PCCB (UniProt P05166) | 1.87 °C | -0.679 °C |
| SLC38A1 (UniProt Q9H2H9) | -0.794 °C | -2.22 °C |
| GSTT1 (UniProt P30711) | -0.0168 °C | -5.17 °C |
| UniProt Q9NYL4 | 1.09 °C | -1.15 °C |
| KIAA1217 (UniProt Q5T5P2) | 3.03 °C | -1.63 °C |
| UniProt P63027 |  | 1.62 °C |
| TMEM33 (UniProt P57088) | -0.139 °C | -2.37 °C |
| SRPRB (UniProt Q9Y5M8) | 1.1 °C | -1.34 °C |
| OGT (UniProt O15294) | -0.617 °C | -0.44 °C |
| IKBIP (UniProt Q70UQ0) | 0.822 °C | 0.919 °C |

Taken from above.
NUDT2 (UniProt P50583) – melting temperature shift [2]: -0.0498 °C
TMUB2 (UniProt Q71RG4) – melting temperature shift [1]: 2.03 °C
NME6 (UniProt O75414) – melting temperature shift [2]: -0.661 °C
ARPP19 (UniProt P56211) – melting temperature shift [1]: -0.913 °C
NPM1 (UniProt P06748) – melting temperature shift [1]: -0.196 °C
GSTT1 (UniProt P30711) – melting temperature shift [1]: -0.0168 °C

Continuation:

| Target | melting temperature shift [1] | melting temperature shift [2] |
| --- | --- | --- |
| WDR13 (UniProt Q9H1Z4) | -0.424 °C | 0.00182 °C |
| UniProt Q96NE9 | 0.905 °C | 1.21 °C |
| BNIP1 (UniProt Q12981) | 2.15 °C | -0.739 °C |
| PSMB3 (UniProt P49720) |  | -1.15 °C |
| ISCU (UniProt Q9H1K1) | 2.12 °C |  |
| RPL18A (UniProt Q02543) | 0.622 °C | -0.447 °C |
| COPG2 (UniProt Q9UBF2) | -0.771 °C | 0.0383 °C |
| GTF2E2 (UniProt P29084) | -0.754 °C | -2.16 °C |
| UniProt P57721 |  | -0.76 °C |
| KTN1 (UniProt Q86UP2) | 1.31 °C | -0.651 °C |
| UniProt Q9UGU0 | 3.43 °C | -0.45 °C |
| SIL1 (UniProt Q9H173) | 0.451 °C | 0.462 °C |
| GOLIM4 (UniProt O00461) | 1.43 °C | 0.526 °C |
| NSUN5 (UniProt Q96P11) | -0.0968 °C | -1.16 °C |
| UniProt P61204 |  | -1.13 °C |
| DNM1L (UniProt O00429) | -0.654 °C | -0.915 °C |
| DNAAF5 (UniProt Q86Y56) | 0.11 °C | 1.13 °C |
| IQGAP1 (UniProt P46940) | -0.411 °C | -1.1 °C |
| ATP1B3 (UniProt P54709) | 2.67 °C | -0.377 °C |
| UniProt P00403 | 1.33 °C | -1.4 °C |
| DDX5 (UniProt P17844) | 0.609 °C | -0.175 °C |
| CRBN (UniProt Q96SW2) | -1.75 °C | 1.47 °C |

| Target | melting temperature shift [1] | melting temperature shift [2] |
| --- | --- | --- |
| PEPD (UniProt P12955) | -0.164 °C | -0.238 °C |
| WDR73 (UniProt Q6P4I2) |  | -0.208 °C |
| UniProt Q9P0J0 | 2.68 °C | 0.227 °C |
| NDUFAF1 (UniProt Q9Y375) | 1.68 °C | 3.76 °C |
| EIF2D (UniProt P41214) | -0.182 °C | -0.729 °C |
| UniProt Q9BZ95 | 1.19 °C | 1.28 °C |
| MICALL2 (UniProt Q8IY33) | -2.98 °C |  |
| TXNRD1 (UniProt Q16881) | -1.03 °C | 0.247 °C |
| TFG (UniProt Q92734) | -1.52 °C | 0.349 °C |
| PAPSS2 (UniProt O95340) | 0.151 °C | -0.44 °C |
| PGM1 (UniProt P36871) | -0.758 °C | -1.59 °C |
| TAX1BP3 (UniProt O14907) | -0.306 °C | 0.962 °C |
| LARP4 (UniProt Q71RC2) | -0.446 °C |  |
| ACBD3 (UniProt Q9H3P7) | 0.436 °C | -0.659 °C |
| UniProt O75352 | 1.14 °C |  |
| HTT (UniProt P42858) | -0.108 °C | 0.235 °C |
| CD70 (UniProt P32970) | 1.46 °C | 0.653 °C |
| TMED4 (UniProt Q7Z7H5) | 1.39 °C | -1.09 °C |
| UniProt Q6ZTA4 | 3.23 °C |  |
